Assay results taken from article doi:10.1101/2023.10.29.564595.
Construct, isoform or probe ends are uncertain for at least one entry. At least one verdict rests on a figure or table, not on a statement of the authors.

Molecular target: DNMT3A1 1-427 (NT-PWWP) (human) (UniProt Q9Y6K1)
Assay: EMSA
Details: residues 1-427

## TATACGCGGCCGCCCTGGAGAATCCCGGTGCCGAGGCCGCTCAATTGGTCGTAGACAGCTCTAGCACCGCTTAAACGCACGTACGCGCTGTCCCCCGCGTTTTAACCGCCAAGGGGATTACTCCCTAGTCTCCAGGCACGTGTCAGATATATACATCCTGTGCAATGTGTTCCAT (double strand) [free 175 bp Widom601 DNA]
  binding result: binds
